The list shows a part of the results.
Compound: Cc1cc(ccc1-c1ccccc1)C(=O)N1CCCN(CC1)C(=O)CCl [compound 10]
Assay: probe-labelled cysteine peptide fold change vs DMSO (competition) (log2 fold change); higher = less target engagement (more negative = stronger competition)
Settings: THP-1, incubation time: 4 h
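Further: competitive profiling in live THP-1 cells: cysteine peptides tagged with an iodoacetamide desthiobiotin (IA-DTB) probe, intensity after compound treatment relative to DMSO-treated cells.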

| Target | probe-labelled cysteine peptide fold change (10 µM) | probe-labelled cysteine peptide fold change (50 µM) |
| --- | --- | --- |
| COX17_Q14061_45_GEEHCGHLIEAHK (UniProt Q14061) | 0.354 | 0.15 |
| CRBN_Q96SW2_188_VQILPECVLPSTMSAVQLESLNK (UniProt Q96SW2) | -0.183 | -0.156 |
| CTNNB1_P35222_466_AGDREDITEPAICALR (UniProt P35222) | 0.16 | 1.07 |
| CPPED1_Q9BRF8_88_FFVLCGDLIHAMPGKPWR (UniProt Q9BRF8) | -0.0653 | -0.191 |
| CTDP1_Q9Y5B0_201_LVLMVDLDQTLIHTTEQHCQQMSNK (UniProt Q9Y5B0) | -0.3 | -0.6 |
| CPNE1_Q99829_53_NCSSPEFSK (UniProt Q99829) | -0.118 | -0.316 |
| CTDP1_Q9Y5B0_700_VLQAQECGHLHVVNPDWLWSCLER (UniProt Q9Y5B0) | -0.181 | -0.516 |
| CORO1B_Q9BR76_25_NDQCYEDIR (UniProt Q9BR76) | -0.0464 | -0.0083 |
| CSDE1_O75534_657_FQLCVLGQNAQTMAYNITPLR (UniProt O75534) | 0.223 | 0.2 |
| COX6B1_P14854_30_NCWQNYLDFHR (UniProt P14854) | -0.154 | -0.0245 |
| CTNNA1_P35221_461_MSASQLEALCPQVINAALALAAK (UniProt P35221) | 0.108 | 0.332 |
| CTDSPL_O15194_197_ESCVFHR (UniProt O15194) | -0.0178 | 0.0125 |
| CPSF3_Q9UKF6_223_FCNTVHDIVNR (UniProt Q9UKF6) | -0.0564 | -0.0286 |
| CRYBG1_Q9Y4K1_541_SPEAVGSECPSR (UniProt Q9Y4K1) | -0.333 | -0.462 |
| CRYZL1_O95825_302_YLCILK (UniProt O95825) | -0.195 | -0.442 |
| CSRP1_P21291_167_GLESTTLADKDGEIYCK (UniProt P21291) | -0.0814 | -1.06 |
| CSTF1_Q05048_178_TLYDHVDEVTCLAFHPTEQILASGSR (UniProt Q05048) | 0.12 | 0.234 |
| CSRP1_P21291_25_TVYFAEEVQCEGNSFHK (UniProt P21291) | 2.29e-05 | -0.0826 |
| CPNE2_Q96FN4_48_SDPFCVLFTENNGR (UniProt Q96FN4) | 0.216 | -0.00446 |
| CORO6_Q6QEF8_344_KCEPIIMTVPR (UniProt Q6QEF8) | 0.0964 | -0.129 |

| Target | probe-labelled cysteine peptide fold change (10 µM) | probe-labelled cysteine peptide fold change (50 µM) |
| --- | --- | --- |
| CTDP1_Q9Y5B0_277_ILSRDECIDPFSK (UniProt Q9Y5B0) | -0.0626 | -0.31 |
| CPNE8_Q86YQ8_118_HDFLGQVFCTLGEIVGSQGSR (UniProt Q86YQ8) | 0.211 | 0.228 |
| CTPS1_P17812_30_SCGLHVTSIK (UniProt P17812) | 0.14 | 0.147 |
| CTPS1_P17812_491_CLEEQGLK (UniProt P17812) | 0.00947 | -0.332 |
| CSDE1_O75534_129_SPAAPGQSPTGSVCYER (UniProt O75534) | 0.1 | 0.0574 |
| CPSF1_Q10570_983_LHPMAIDGPVDSFAPFHNVNCPR (UniProt Q10570) | -0.0556 | 0.0917 |
| CORO7_P57737_389_VSLNPACR (UniProt P57737) | -0.217 | -0.0214 |
| CTDNEP1_O95476_161_QHCTLELGSYIK (UniProt O95476) | 0.117 | 0.158 |
| CPT2_P23786_535_HSAGELQQMMVECSK (UniProt P23786) | -0.179 | -0.0903 |
| CRIP2_P52943_150_DWHRPCLR (UniProt P52943) | 0.923 | 1.04 |
| CRYL1_Q9Y2S2_125_VILSSSTSCLMPSK (UniProt Q9Y2S2) | -0.0791 | -0.537 |
| CPT2_P23786_445_TLTIDCVQFQR (UniProt P23786) | -0.132 | -0.0126 |
| CRYZL1_O95825_40_ACALSQINTK (UniProt O95825) | 0.179 | 0.22 |
| CSTF1_Q05048_415_CIVHSPTNPGFMTCSDDFR (UniProt Q05048) | -0.0745 | 0.192 |
| CSE1L_P55060_85_ICEADR (UniProt P55060) | -0.0868 | 0.138 |
| CPNE3_O75131_31_SDPLCVLFLNTSGQQWYEVER (UniProt O75131) | 0.353 | 0.253 |
| CPSF7_Q8N684_399_DCLHGIEAK (UniProt Q8N684) | 0.11 | -0.0358 |
| CRYBG1_Q9Y4K1_581+609_EVQLPTCHSNEPEVVSVASCAPPQEEVLGNEHSHCTAELAAK (UniProt Q9Y4K1) | -0.034 | -0.822 |
| CSE1L_P55060_61_VCASVTFK (UniProt P55060) | -0.071 | 0.0214 |

2 entries from above, bar-delimited:
Target | probe-labelled cysteine peptide fold change (10 µM) | probe-labelled cysteine peptide fold change (50 µM)
CSE1L_P55060_85_ICEADR (UniProt P55060) | -0.0868 | 0.138
CPSF7_Q8N684_399_DCLHGIEAK (UniProt Q8N684) | 0.11 | -0.0358
